± gives the standard deviation of the averaged measurements. Only a part is listed here, and it is no random draw. Most values lie at the level of the controls, where differences are scatter.

Sequences of proteins named here, by UniProt entry; tags and fusion partners are left off. A change or cut given only in a name is not applied to a line headed by its entry.
UniProt Q6XQN6: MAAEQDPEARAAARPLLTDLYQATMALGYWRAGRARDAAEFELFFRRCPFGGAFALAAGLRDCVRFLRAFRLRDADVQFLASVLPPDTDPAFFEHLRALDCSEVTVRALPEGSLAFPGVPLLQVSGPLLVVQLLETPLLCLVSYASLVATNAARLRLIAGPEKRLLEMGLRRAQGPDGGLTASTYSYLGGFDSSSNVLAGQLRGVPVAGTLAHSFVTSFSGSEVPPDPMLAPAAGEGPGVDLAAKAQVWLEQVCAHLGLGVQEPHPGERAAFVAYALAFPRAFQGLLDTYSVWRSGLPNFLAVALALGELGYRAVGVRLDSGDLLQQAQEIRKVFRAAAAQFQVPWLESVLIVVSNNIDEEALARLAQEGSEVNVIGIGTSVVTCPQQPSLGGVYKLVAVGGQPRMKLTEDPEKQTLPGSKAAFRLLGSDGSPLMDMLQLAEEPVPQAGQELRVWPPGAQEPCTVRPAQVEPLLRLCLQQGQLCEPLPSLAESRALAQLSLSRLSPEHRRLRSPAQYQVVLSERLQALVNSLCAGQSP
UniProt O43493: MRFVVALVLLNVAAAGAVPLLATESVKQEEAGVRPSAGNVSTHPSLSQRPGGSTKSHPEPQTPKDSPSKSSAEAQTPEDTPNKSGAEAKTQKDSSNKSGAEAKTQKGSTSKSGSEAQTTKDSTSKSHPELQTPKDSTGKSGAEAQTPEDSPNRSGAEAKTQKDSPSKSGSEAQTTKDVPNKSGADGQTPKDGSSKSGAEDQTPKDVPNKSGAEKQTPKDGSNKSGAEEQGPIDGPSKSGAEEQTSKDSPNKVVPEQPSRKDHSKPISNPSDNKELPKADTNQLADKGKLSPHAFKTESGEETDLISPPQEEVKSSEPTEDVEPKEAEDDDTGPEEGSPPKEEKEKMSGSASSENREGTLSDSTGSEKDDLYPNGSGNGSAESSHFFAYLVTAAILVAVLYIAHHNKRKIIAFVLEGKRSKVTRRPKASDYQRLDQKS
UniProt O75376, whole entry: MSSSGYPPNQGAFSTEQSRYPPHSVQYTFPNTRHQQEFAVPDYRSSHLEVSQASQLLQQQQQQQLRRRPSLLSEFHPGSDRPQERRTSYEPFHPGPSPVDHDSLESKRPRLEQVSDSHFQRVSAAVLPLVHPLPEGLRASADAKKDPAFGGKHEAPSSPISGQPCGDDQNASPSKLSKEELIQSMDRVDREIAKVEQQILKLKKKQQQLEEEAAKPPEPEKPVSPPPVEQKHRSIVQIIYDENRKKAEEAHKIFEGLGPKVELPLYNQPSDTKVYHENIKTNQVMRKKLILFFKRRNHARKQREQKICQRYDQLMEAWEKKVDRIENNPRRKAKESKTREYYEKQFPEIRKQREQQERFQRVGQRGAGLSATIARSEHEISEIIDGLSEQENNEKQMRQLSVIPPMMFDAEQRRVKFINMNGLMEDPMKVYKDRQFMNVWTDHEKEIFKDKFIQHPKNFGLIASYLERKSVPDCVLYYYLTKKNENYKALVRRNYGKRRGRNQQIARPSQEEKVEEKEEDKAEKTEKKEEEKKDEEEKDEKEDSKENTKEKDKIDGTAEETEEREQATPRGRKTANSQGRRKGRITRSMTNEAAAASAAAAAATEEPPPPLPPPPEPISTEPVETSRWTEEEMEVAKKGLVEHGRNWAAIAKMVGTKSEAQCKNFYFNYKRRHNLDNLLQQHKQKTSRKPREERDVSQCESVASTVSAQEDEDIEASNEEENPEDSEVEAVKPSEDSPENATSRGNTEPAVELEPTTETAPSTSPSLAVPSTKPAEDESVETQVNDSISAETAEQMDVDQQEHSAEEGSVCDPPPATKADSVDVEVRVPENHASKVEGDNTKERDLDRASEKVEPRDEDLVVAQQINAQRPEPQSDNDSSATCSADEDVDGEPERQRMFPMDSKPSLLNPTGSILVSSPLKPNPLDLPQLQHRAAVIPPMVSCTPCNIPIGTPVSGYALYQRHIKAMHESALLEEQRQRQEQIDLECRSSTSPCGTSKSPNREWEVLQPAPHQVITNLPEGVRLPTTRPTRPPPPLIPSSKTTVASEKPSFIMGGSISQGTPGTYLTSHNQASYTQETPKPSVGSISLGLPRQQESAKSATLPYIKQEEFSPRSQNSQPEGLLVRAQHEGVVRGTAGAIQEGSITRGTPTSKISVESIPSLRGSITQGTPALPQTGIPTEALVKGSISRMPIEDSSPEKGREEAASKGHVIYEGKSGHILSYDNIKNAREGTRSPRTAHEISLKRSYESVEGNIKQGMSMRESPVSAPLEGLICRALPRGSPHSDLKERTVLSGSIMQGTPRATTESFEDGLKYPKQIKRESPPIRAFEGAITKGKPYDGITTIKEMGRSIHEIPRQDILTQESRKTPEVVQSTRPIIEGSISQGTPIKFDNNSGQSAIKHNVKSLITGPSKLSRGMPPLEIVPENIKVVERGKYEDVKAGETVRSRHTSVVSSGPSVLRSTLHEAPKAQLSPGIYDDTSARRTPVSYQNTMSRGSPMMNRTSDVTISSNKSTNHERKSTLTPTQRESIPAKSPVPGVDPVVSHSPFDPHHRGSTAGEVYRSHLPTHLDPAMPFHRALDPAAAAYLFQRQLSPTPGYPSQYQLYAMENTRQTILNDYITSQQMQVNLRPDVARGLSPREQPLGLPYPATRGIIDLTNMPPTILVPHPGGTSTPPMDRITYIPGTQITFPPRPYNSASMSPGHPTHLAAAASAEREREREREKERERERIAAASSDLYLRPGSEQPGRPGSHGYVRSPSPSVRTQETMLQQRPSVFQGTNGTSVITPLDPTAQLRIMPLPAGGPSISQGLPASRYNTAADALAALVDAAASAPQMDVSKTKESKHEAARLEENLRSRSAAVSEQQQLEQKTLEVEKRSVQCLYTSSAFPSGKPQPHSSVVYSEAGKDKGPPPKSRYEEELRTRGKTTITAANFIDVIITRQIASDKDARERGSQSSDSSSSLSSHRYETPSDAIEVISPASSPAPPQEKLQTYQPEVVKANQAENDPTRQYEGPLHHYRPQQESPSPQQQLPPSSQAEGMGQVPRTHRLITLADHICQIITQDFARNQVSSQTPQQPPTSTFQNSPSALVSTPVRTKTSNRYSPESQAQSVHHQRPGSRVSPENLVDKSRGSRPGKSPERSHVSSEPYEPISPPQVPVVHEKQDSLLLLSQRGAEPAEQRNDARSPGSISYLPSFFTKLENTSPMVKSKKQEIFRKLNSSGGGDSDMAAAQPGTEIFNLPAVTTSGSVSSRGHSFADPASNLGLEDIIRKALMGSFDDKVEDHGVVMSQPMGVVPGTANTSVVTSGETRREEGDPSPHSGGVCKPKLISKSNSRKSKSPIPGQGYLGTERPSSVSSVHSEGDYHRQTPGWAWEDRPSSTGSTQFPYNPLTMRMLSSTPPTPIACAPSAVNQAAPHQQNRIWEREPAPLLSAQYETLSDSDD
UniProt Q14699: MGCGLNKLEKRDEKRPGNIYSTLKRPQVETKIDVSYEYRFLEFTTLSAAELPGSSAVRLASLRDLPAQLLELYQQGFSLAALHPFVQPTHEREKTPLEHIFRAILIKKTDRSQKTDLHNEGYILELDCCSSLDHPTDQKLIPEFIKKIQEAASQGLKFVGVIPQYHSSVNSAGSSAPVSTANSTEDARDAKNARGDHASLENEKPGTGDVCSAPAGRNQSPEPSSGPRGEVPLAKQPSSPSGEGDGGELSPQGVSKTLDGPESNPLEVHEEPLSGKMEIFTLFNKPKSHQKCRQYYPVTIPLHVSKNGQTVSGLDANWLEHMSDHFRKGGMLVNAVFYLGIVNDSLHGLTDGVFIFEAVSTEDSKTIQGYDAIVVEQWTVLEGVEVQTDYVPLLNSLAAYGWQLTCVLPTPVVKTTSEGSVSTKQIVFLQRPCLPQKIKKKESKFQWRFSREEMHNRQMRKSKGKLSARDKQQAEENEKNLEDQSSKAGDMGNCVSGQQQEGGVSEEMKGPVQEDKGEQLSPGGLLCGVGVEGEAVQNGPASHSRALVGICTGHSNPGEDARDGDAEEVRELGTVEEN
UniProt O95819: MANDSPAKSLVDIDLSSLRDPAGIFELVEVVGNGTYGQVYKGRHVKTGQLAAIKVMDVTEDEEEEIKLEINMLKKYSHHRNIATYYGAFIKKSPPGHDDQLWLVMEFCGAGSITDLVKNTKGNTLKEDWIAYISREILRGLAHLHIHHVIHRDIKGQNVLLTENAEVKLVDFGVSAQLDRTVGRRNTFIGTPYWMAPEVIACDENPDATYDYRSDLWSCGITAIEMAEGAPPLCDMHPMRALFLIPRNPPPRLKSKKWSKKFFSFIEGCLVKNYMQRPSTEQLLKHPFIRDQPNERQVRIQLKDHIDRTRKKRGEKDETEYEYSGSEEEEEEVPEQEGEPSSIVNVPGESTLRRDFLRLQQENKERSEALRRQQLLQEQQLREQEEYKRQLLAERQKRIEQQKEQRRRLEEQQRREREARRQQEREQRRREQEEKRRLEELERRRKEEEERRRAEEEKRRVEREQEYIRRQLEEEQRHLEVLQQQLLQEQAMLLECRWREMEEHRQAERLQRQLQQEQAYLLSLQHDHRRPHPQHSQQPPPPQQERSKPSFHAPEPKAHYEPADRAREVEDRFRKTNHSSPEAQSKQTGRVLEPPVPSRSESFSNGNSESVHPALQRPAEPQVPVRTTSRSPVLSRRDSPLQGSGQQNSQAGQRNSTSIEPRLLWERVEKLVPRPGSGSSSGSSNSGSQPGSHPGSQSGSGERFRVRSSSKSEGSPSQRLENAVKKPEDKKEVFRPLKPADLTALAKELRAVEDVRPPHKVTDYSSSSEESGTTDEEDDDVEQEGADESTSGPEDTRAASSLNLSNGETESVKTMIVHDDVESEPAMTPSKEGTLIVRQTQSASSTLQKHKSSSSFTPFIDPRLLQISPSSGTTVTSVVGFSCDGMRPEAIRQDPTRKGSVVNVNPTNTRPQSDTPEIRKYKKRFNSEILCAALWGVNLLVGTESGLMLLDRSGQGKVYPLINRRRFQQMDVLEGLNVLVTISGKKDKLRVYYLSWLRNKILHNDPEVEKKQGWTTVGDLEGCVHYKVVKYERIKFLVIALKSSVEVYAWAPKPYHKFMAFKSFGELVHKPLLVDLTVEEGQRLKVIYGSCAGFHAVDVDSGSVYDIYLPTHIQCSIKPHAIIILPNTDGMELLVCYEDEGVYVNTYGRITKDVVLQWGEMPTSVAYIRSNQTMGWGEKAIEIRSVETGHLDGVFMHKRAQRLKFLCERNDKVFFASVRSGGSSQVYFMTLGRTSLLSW
UniProt Q8NCG7: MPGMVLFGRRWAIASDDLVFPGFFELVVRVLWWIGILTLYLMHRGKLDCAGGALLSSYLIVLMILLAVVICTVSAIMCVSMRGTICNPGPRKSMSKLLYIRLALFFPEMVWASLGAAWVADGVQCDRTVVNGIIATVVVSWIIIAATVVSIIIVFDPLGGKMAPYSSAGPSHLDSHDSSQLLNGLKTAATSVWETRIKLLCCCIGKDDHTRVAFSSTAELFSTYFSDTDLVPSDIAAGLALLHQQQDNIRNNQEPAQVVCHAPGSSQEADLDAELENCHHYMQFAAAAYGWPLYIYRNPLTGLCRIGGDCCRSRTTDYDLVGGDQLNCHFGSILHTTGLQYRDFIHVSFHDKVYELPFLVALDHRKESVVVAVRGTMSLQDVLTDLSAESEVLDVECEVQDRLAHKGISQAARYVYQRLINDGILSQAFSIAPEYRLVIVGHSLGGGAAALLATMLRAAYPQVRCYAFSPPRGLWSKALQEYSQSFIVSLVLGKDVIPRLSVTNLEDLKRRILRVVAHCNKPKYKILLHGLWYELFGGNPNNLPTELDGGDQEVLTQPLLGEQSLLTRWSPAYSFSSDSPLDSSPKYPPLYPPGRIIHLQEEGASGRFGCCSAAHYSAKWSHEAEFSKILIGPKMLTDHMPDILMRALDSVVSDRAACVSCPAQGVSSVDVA
UniProt Q9H019: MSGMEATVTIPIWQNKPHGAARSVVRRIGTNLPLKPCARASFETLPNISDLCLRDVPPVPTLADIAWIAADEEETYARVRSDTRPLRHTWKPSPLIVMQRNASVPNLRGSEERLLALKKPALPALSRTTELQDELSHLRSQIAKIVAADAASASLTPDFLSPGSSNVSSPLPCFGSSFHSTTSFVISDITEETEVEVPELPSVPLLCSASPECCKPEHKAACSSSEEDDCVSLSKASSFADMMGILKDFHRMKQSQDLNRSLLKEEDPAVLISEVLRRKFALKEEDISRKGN
UniProt Q99571: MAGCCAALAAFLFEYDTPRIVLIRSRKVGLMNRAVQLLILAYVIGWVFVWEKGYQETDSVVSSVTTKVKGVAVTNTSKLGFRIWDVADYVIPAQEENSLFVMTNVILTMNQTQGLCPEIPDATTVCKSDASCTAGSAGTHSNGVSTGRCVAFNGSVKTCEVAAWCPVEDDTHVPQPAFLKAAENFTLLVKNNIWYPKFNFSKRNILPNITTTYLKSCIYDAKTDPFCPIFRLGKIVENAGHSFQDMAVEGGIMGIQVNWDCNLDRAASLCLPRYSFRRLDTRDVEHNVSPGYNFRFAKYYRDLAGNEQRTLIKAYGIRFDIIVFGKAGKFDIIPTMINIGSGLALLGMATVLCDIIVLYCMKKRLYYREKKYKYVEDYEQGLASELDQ

The values below come from the supplement of paper PMC6411743.

Compound in the test: Nc1ncnc2c1ncn2[C@@H]1O[C@H](COP(=O)(O)OP(=O)(O)OP(=O)(O)O)[C@@H](O)[C@H]1O [adenosine triphosphate]
The test is described as follows: NP40-soluble protein abundance relative to vehicle (solubility fold change) (ratio); higher = more soluble protein in presence of ATP. In outline:
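Across three independent experiments, values are fold changes against the detergent-processed vehicle for each replicate, based on vsn-normalised intensities. The samples were Jurkat crude lysate treated with eight concentrations (0.1 to 10 mM) for 10 min at room temperature and then 3 min at 37 °C. Lysate was solubilised with 0.8% NP40 and benzonase, ultracentrifuged, and the supernatant analysed by TMT-labelled LC-MS/MS.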

For “F8WCF6 and related entries (UniProt P59998)”, the NP40-soluble protein abundance (concentration: 0.1mM) turned out to be 0.968 ± 0.081 and the NP40-soluble protein abundance (concentration: 0.5mM) was determined as 0.963 ± 0.048.

As to “F6VUX8 and related entries (UniProt Q9HC77)”, the NP40-soluble protein abundance stood at 0.944 ± 0.039 (concentration: 0.1mM) and 0.949 ± 0.03 (concentration: 0.5mM).

Consider “G3V553 and related entries (UniProt Q9NWQ4)”, for which the NP40-soluble protein abundance by setting is: (concentration: 0.1mM) 0.899 ± 0.047; (concentration: 0.5mM) 1.05 ± 0.19.

Turning to “F5H0F9 and related entries (UniProt Q9UJX4)”, the NP40-soluble protein abundance by setting is: (concentration: 0.1mM) 1.01 ± 0.022; (concentration: 0.5mM) 1.05 ± 0.03.

Consider “G5E977 and related entries (UniProt Q6XQN6)”, for which the NP40-soluble protein abundance by setting is: (concentration: 0.1mM) 1.04 ± 0.044; (concentration: 0.5mM) 0.946 ± 0.033.

With “F8VU11 and related entries (UniProt Q6NWY9)”, the NP40-soluble protein abundance by setting is: (concentration: 0.1mM) 0.885 ± 0.042; (concentration: 0.5mM) 0.992 ± 0.044.

With “F5H136 and related entries (UniProt P17987)”, the NP40-soluble protein abundance was 0.997 ± 0.054 (concentration: 0.1mM) and 1.01 ± 0.077 (concentration: 0.5mM).

Turning to “E9PQ56 and related entries (UniProt Q9UHX1)”, the NP40-soluble protein abundance runs as follows: (concentration: 0.1mM) 1.12 ± 0.026; (concentration: 0.5mM) 1.31 ± 0.064.

On to “E9PG19 and related entries (UniProt O94868)”, for which the NP40-soluble protein abundance (concentration: 0.1mM) was 1.01 ± 0.025 and the NP40-soluble protein abundance (concentration: 0.5mM) came out at 1 ± 0.048.

As to “F2Z2W7 and related entries (UniProt Q8IZ69)”, the NP40-soluble protein abundance (concentration: 0.1mM) was determined as 0.987 ± 0.031 and the NP40-soluble protein abundance (concentration: 0.5mM) came to 1.02 ± 0.02.

Regarding “F8W8W7 and related entries (UniProt O43493)”, the NP40-soluble protein abundance (concentration: 0.1mM) came to 0.885 ± 0.23 and the NP40-soluble protein abundance (concentration: 0.5mM) came out at 0.88 ± 0.29.

For “E7EW50 and related entries (UniProt O75376)”, the NP40-soluble protein abundance amounted to 0.987 ± 0.024 (concentration: 0.1mM) and 1 ± 0.049 (concentration: 0.5mM).

As for “F5GXF9 and related entries (UniProt P51825)”, the NP40-soluble protein abundance runs as follows: (concentration: 0.1mM) 0.992 ± 0.11; (concentration: 0.5mM) 0.984 ± 0.14.

“E7ERS3 and related entries (UniProt Q86VM9)”: the NP40-soluble protein abundance is, setting by setting: (concentration: 0.1mM) 0.96 ± 0.053; (concentration: 0.5mM) 1.05 ± 0.05.

“E9PLV1 and related entries (UniProt Q9NQV6)”: the NP40-soluble protein abundance reads like this: (concentration: 0.1mM) 1.01 ± 0.019; (concentration: 0.5mM) 0.984 ± 0.07.

For “G3XAJ6 and related entries (UniProt Q14699)”, the NP40-soluble protein abundance was found to be 1.01 ± 0.032 (concentration: 0.1mM) and 0.993 ± 0.035 (concentration: 0.5mM).

With “E9PBC1 and related entries (UniProt O95208)”, the NP40-soluble protein abundance was determined as 0.961 ± 0.057 (concentration: 0.1mM) and 0.909 ± 0.043 (concentration: 0.5mM).

In the case of “E7EN19 and related entries (UniProt O95819)”, the NP40-soluble protein abundance by setting is: (concentration: 0.1mM) 1.03 ± 0.019; (concentration: 0.5mM) 1.02 ± 0.034.

E9PGC8 (UniProt P78559): the NP40-soluble protein abundance reads like this: (concentration: 0.1mM) 0.981 ± 0.02; (concentration: 0.5mM) 0.985 ± 0.049.

In the case of “E9PJ04 and related entries (UniProt Q13435)”, the NP40-soluble protein abundance is, setting by setting: (concentration: 0.1mM) 0.999 ± 0.056; (concentration: 0.5mM) 1.06 ± 0.084.

“E7ESG2 and related entries (UniProt Q9HAW4)”: the NP40-soluble protein abundance is, setting by setting: (concentration: 0.1mM) 1.02 ± 0.04; (concentration: 0.5mM) 1.01 ± 0.048.

In the case of “E9PKF3 and related entries (UniProt P24752)”, the NP40-soluble protein abundance (concentration: 0.1mM) turned out to be 0.988 ± 0.022 and the NP40-soluble protein abundance (concentration: 0.5mM) stood at 1.01 ± 0.053.

With “E7ET49 and related entries (UniProt Q8NCG7)”, the NP40-soluble protein abundance was found to be 1.04 ± 0.055 (concentration: 0.1mM) and 0.977 ± 0.081 (concentration: 0.5mM).

“E9PJM3 and related entries (UniProt Q9UK99)”: the NP40-soluble protein abundance was 1.03 ± 0.072 (concentration: 0.1mM) and 0.989 ± 0.035 (concentration: 0.5mM).

Turning to “E9PLD2 and related entries (UniProt Q9H019)”, the NP40-soluble protein abundance worked out at 0.999 ± 0.044 (concentration: 0.1mM) and 1.01 ± 0.023 (concentration: 0.5mM).

For “E9PKQ5 and related entries (UniProt Q9GZT6)”, the NP40-soluble protein abundance worked out at 0.972 ± 0.035 (concentration: 0.1mM) and 0.9768 ± 0.0061 (concentration: 0.5mM).

Regarding “F6SFZ6 and related entries (UniProt Q99571)”, the NP40-soluble protein abundance runs as follows: (concentration: 0.1mM) 0.925 ± 0.076; (concentration: 0.5mM) 0.975 ± 0.14.
